# Results: US12156871B2, “Substituted azacycles as muscarinic M1 receptor positive allosteric modulators” (SUVEN LIFE SCIENCES LIMITED, priority 2017, dated 2024)
# Test system: hippocampal theta oscillations
# Assay: Theta modulation in dorsal hippocampus of anesthetized rats in combination with donepezil
# Format: in vivo, Male Wistar rats
# Details: donepezil alone, 0.3 mg/kg, i.v., anesthetized rat
# Method: Effect of M1 PAM compound (Example 38) in combination with donepezil on brain activity as a pharmacodynamic endpoint is evaluated.
# Male Wistar rats (240-320 g) were anesthetized by intraperitoneal administration of urethane (1.2 to 1.5 g/kg) for implantation of a catheter in the left femoral vein. The animal was placed in a stereotaxic frame for implanting an electrode (stainless steel wire, Plastics One) into the dorsal hippocampus (AP: 3.8 mm; ML: +2.2 mm; DV: 2.5 mm; Paxinos and Watson, 2004). Bipolar stimulating electrode (untwisted stainless steel wires, separated by 0.75-1.0 mm at their tips, Plastics One) was implanted in the Nucleus Pontis Oralis (NPO; AP: 7.8 mm; ML: 1.8 mm; DV: 6.0 mm; Paxinos and Watson, 2004). Additionally one electrode was implanted into the cerebellum which served as a reference. Hippocampal θ rhythm was evoked via a 6-s electrical stimulation train (20-160 μA, 0.3-ms pulse duration, 250 Hz) delivered to the NPO at a rate of 0.01 trains/s with a Grass S88 stimulator and PSIU6 stimulus isolation unit (Grass Medical Instruments, Quincy, MA). EEG was recorded at a rate of 1000 Hz using Ponemah (Version 5.2) software and stored for off-line analysis using NeuroScore (Version 3.0). […]
# Power in the θ rhythm frequency in the stimulation period during the 30-min baseline period was calculated and the % changes in these measures post treatment were calculated. […]
smiles,measurement,value
"COc1cc2c(cc1OC)C(=O)C(CC1CCN(Cc3ccccc3)CC1)C2 (stereo not shown) [donepezil, reference compound]",hippocampal θ power,moderate increase
